PubChem BioAssay AID743454, Peter MacCallum Cancer Centre, 2014
This is a random part of about 18,000 reagents. 450 of all reagents (2.5%) were called active. 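Single biological run; no consistent viability z cut-off exists, so the class columns, not z-scores, define the calls.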 Reagent sequences are not shown.

Assay: 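Knock-downs lowering viability or raising caspase 3/7 activity in vorinostat-treated resistant cells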 (primary screen)
Cell system: human HCT116-VR colon cancer cells, selected for vorinostat resistance
Reagents: siRNA pool against human genes, 40 nM siRNA pool
Duration: vorinostat for 24 h, read-out about 72 h after transfection
Conditions: vorinostat at 2.5 µM final
Detection: 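Cell viability by CellTiter-Fluor and caspase 3/7 activity by luminescence, each scaled to mock wells per plate, duplicates averaged, then robust z-scored over all plates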
Reading the numbers: viability robust z-score: higher = more viable cells than screen typical; caspase robust z-score: higher = more caspase 3/7 activity than screen typical
Rule for the call: 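Hits are knock-downs in viability class RV1/RV2 or caspase class CA1/CA2, excluding ones that killed cells in the no-drug cell-count arm; hits then retested with single siRNAs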

| gene symbol | viability hit class | caspase hit class | viability robust z-score | caspase robust z-score | call |
| --- | --- | --- | --- | --- | --- |
| DBX2 (developing brain homeobox 2) | no change | no change | 1.45 | 0.4 | inactive |
| ZNF829 (zinc finger protein 829) | no change | no change | 0.48 | -1 | inactive |
| DZIP3 (DAZ interacting zinc finger protein 3) | no change | no change | -0.89 | 3.31 | inactive |
| IQUB (IQ motif and ubiquitin domain containing) | no change | no change | 0.18 | 1.5 | inactive |
| UTF1 (undifferentiated embryonic cell transcription factor 1) | no change | no change | -0.15 | -0.92 | inactive |
| SLX4 (SLX4 structure-specific endonuclease subunit) | no change | no change | 0.06 | 0.08 | inactive |
| DUSP22 (dual specificity phosphatase 22) | no change | no change | 0.96 | 0.43 | inactive |
| OR9Q1 (olfactory receptor family 9 subfamily Q member 1) | no change | no change | 0.16 | 1.69 | inactive |
| C1QA (complement C1q A chain) | no change | no change | -2.63 | 3.76 | inactive |
| ANKRD39 (ankyrin repeat domain 39) | no change | no change | -0.28 | 3.6 | inactive |
| HINT1 (histidine triad nucleotide binding protein 1) | no change | no change | -0.11 | -0.49 | inactive |
| PKHD1 (PKHD1 ciliary IPT domain containing fibrocystin/polyductin) | no change | no change | 0.08 | -0.26 | inactive |
| TMEM144 (transmembrane protein 144) | no change | no change | 0.56 | -0.36 | inactive |
| ZNF791 (zinc finger protein 791) | no change | no change | -0.68 | 0.7 | inactive |
| SETX (senataxin) | no change | no change | -4.6 | 2.82 | inactive |
| TRAF3IP3 (TRAF3 interacting protein 3) | no change | no change | -0.44 | -0.32 | inactive |
| FBXO48 (F-box protein 48) | no change | no change | -1.68 | 3.08 | inactive |
| CALM2 (calmodulin 2) | RV2 (reduced viability) | no change | -3.44 | 2.4 | active |
| ZBTB46 (zinc finger and BTB domain containing 46) | no change | no change | 0.36 | 3.46 | inactive |
| SSTR5 (somatostatin receptor 5) | no change | no change | -0.32 | -0.17 | inactive |
| HECTD2 (HECT domain E3 ubiquitin protein ligase 2) | no change | no change | -0.65 | 1.55 | inactive |
| SMYD5 (SMYD family member 5) | no change | no change | -0.15 | -1 | inactive |
| EXO1 (exonuclease 1) | no change | no change | 0.48 | -0.66 | inactive |
| OTUD6A (OTU deubiquitinase 6A) | no change | no change | 0.89 | -0.43 | inactive |
| COL6A5 (collagen type VI alpha 5 chain) | no change | no change | 0.05 | -0.84 | inactive |
| INTS9 (integrator complex subunit 9) | no change | no change | -0.77 | 2.17 | inactive |
| GABRR1 (gamma-aminobutyric acid type A receptor subunit rho1) | no change | no change | 0.63 | 0 | inactive |
| FAM117B (family with sequence similarity 117 member B) | no change | no change | -0.41 | -0.88 | inactive |
| CHST5 (carbohydrate sulfotransferase 5) | no change | no change | -0.22 | -0.52 | inactive |
| FBXO25 (F-box protein 25) | no change | no change | 0.66 | -0.48 | inactive |
| FAM20B (FAM20B glycosaminoglycan xylosylkinase) | no change | no change | 0.92 | -1.16 | inactive |
| OCLM (retired record) | no change | no change | 0.45 | -0.3 | inactive |
| NPM3 (nucleophosmin/nucleoplasmin 3) | no change | no change | 1.29 | -0.23 | inactive |
| CNPY4 (canopy FGF signaling regulator 4) | no change | no change | -0.55 | -0.81 | inactive |
| MXI1 (MAX interactor 1, dimerization protein) | no change | no change | 1.08 | 0.03 | inactive |
| MAPK3 (mitogen-activated protein kinase 3) | no change | no change | 1.15 | 4.71 | inactive |
| LCE2C (late cornified envelope 2C) | no change | no change | -0.64 | 1.73 | inactive |
| AASDHPPT | no change | no change | 0.02 | -0.02 | inactive |
| IGFBP7 (insulin like growth factor binding protein 7) | no change | no change | 0.02 | 0.36 | inactive |

Called active (from the list above):
| gene symbol | viability hit class | caspase hit class | viability robust z-score | caspase robust z-score | call |
| --- | --- | --- | --- | --- | --- |
| CALM2 (calmodulin 2) | RV2 (reduced viability) | no change | -3.44 | 2.4 | active |
